The source of these data is patent US20250346680A1.

The chains behind the UniProt entries cited, without tags or fusion partners. Residues count along the entry.
UniProt P28908, residues 19-379: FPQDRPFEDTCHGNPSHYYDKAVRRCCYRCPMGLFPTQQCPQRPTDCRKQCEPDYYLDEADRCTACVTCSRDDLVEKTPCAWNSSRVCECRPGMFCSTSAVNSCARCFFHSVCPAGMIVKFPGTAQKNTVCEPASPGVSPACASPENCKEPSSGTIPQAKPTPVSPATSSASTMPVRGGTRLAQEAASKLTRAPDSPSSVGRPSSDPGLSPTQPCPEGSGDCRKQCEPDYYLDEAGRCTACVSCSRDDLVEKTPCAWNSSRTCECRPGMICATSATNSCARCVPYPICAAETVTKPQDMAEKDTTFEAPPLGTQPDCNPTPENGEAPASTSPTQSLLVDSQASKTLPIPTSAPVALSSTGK

No constants are given. Whether binding was seen depends on the method and setting. Some entries that bind do so weakly or less than the wild type.

The target of the experiment is recombinant CD30-GST fusion protein (human) (UniProt P28908). Description: ELISA, plates coated with recombinant CD30-GST fusion protein. Background: ELISA stands for enzyme-linked immunosorbent assay.

B1: monoclonal antibody 8D10 (antibody, V domains shown)
VH: QVQLQESGTELVKPGASVKLSCKASGYTFTSYWMHWMKQRPGQGLEWIGNINPSNGGTNYNEKFKNKATLTVDKSSSTAYMQLSSLTSEDSAVYYCARRDYYYGSSYGFDVWGTGTTVTVSS
VL: DIVMTQSPASQSASLGESVTITCLASQTIGTWLAWYQQKPGKSPQFLIYAATSLADGVPSRFSGSGSGTKFSFKISSLQAEDFVSYYCQQLYSTPFTFGGGTKLEIK
For B1, the binding result was “binds”.

B2: monoclonal antibody 13H1 (antibody, V domains shown)
VH: QVQLQQSGTELVKPGASVKLSCKASGHTFTSYWMHWVKQRPGQGLEWIGNINPSNGGTNYNEKFKSKATLTVDKSSSTAYMQLSSLTSEDSAVYYCARRGYYGSSSYWSFDVWGTGTTVTVSS
VL: DIVMTQTPKSMSMSVGERVTLSCKASENVGTYVSWYQQKPEQSPKVLIYGASNRFTGVPDRFTGSGSATDFTLTISSVQTEDLADYHCGQSYSYPLTFGAGTKLELK
For the molecule B2, the binding result is reported as “binds”.

B3: monoclonal antibody 12B1 (antibody, V domains shown)
VH: EVKLEESGTELVKPGASVKLSCKASGYTFTSYWMHWVKQRPGQGLEWIGNINPTNGGTNYNEKFKSKATLTVDKSSRTAYMQLSSLTSGDSAVYYCARRDFITTSGFAYWGQGTLVTVSA
VL: DIVMTQTTASLSTSVGETVTITCRASGNLHSYLTWYQQKQGKSPQLLVYNAKTLADGVPSRFSGSGSGTQYSLKIDSLQPEDFGSYYCQHFWTTPFTFGSGTKLEIK
For B3, the binding entry is reported as “binds”.

B4: monoclonal antibody 15B8 (antibody, V domains shown)
VH: QVQLEQSGTELVKPGASVKLSCKASGYTFTSYWMHWVKQRPGQGLEWIGNINPSNGGTNYNEKFKSKATLTVDKSSSTAYMQLSSLTSEDSAIYYCARRNNYYASSPFAYWGQGTLVSVSA
VL: DIVMTQTPASLSASVGETVTITCRASGNIHNYLAWYQQKQGKSPQLLVYNAKTLADGVPSRFSGSGSGTQYSLKINSLQPEDFGSYYCQHFWSTPFTFGSGTKLEIK
Regarding B4, the binding entry is given as “binds”.
